PubChem BioAssay AID652272 | Drosophila RNAi Screening Center | 2013
Purpose: 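Genes whose knock-down decreases or increases Hedgehog reporter output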 (primary screen). Cell system: Drosophila clone 8 (Cl8) cells. Knock-down reagent: long dsRNA against Drosophila genes. Measurement: 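Firefly light from a Hedgehog-responsive ptc promoter reporter and Renilla reference light, both read on a plate reader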. Reading the numbers: firefly Hh reporter signal: higher = more ptc reporter light; Renilla reference signal: higher = more Renilla control light. Active means: 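Called a hit if the two-replicate mean z-score lies below -2 or above +3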. Calls: active = hit: reporter lowered or raised; inactive = not a hit.
In all, the deposit lists about 21,000 reagents; this is an unselected part of those with a known target gene and a result. Of all reagents, 503 (2.4%) were called active. 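Raw plate light values, not normalised; calls rest on replicate z-scores that were not deposited; hits include reporter decreases as well as increases.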 The numbers tell different reagents against one gene apart. Not stated in the record: the amount of reagent, the time to read-out.

gene | reagent no. | firefly Hh reporter signal, replicate 1 | firefly Hh reporter signal, replicate 2 | Renilla reference signal, replicate 1 | Renilla reference signal, replicate 2 | Outcome
CG14237 | 1 | 90541 | 88186 | 3510 | 2976 | inactive
TTLL6A (Tubulin tyrosine ligase-like 6A) | 1 | 99225 | 87629 | 2355 | 5173 | inactive
CG8042 | 1 | 1.03e5 | 54064 | 4612 | 2562 | inactive
Obp99d (Odorant-binding protein 99d) | 1 | 58986 | 1.30e5 | 2341 | 3818 | inactive
gbb (glass bottom boat) | 1 | 57317 | 43224 | 1083 | 3571 | inactive
RabX6 | 1 | 63177 | 41990 | 1921 | 3180 | inactive
CG11127 | 1 | 1.33e5 | 90128 | 4592 | 2668 | inactive
Sara (Smad anchor for receptor activation) | 1 | 66280 | 75513 | 1661 | 6249 | inactive
betaTub85D (beta-Tubulin at 85D) | 1 | 53542 | 82728 | 1154 | 2234 | inactive
CG7582 | 1 | 87114 | 87770 | 2855 | 2360 | inactive
CG2887 | 1 | 71552 | 1.56e5 | 2077 | 6153 | inactive
Mst87F (Male-specific RNA 87F) | 1 | 1.47e5 | 1.29e5 | 4901 | 4315 | inactive
asun (asunder) | 1 | 96448 | 84058 | 4778 | 3696 | inactive
pea (peanuts) | 1 | 46096 | 31041 | 3243 | 2027 | inactive
CG8243 | 1 | 1.53e5 | 94941 | 3625 | 8364 | inactive
CG16965 | 1 | 78438 | 60205 | 1849 | 5428 | inactive
CG8360 | 1 | 1.69e5 | 69684 | 4645 | 7725 | inactive
tsl (torso-like) | 1 | 9.72e5 | 1.58e5 | 45403 | 2869 | inactive
nsl1 (non-specific lethal 1) | 1 | 85730 | 63616 | 1139 | 689 | active
CG42749 | 1 | 1.09e5 | 3.13e5 | 3712 | 10707 | inactive
CG42749 | 2 | 55773 | 1.84e5 | 1840 | 6432 | inactive
Cby (Chibby) | 1 | 7.79e5 | 1.77e5 | 37728 | 2987 | inactive
rl (rolled) | 1 | 1.09e5 | 53819 | 3241 | 4039 | inactive
rl (rolled) | 2 | 75152 | 1.71e5 | 2736 | 6995 | inactive

The list goes on; the last 4 above are carried over.
gene | reagent no. | firefly Hh reporter signal, replicate 1 | firefly Hh reporter signal, replicate 2 | Renilla reference signal, replicate 1 | Renilla reference signal, replicate 2 | Outcome
CG42749 | 2 | 55773 | 1.84e5 | 1840 | 6432 | inactive
Cby (Chibby) | 1 | 7.79e5 | 1.77e5 | 37728 | 2987 | inactive
rl (rolled) | 1 | 1.09e5 | 53819 | 3241 | 4039 | inactive
rl (rolled) | 2 | 75152 | 1.71e5 | 2736 | 6995 | inactive
Dnaaf4 (Dynein axonemal assembly factor 4) | 1 | 1.03e5 | 77835 | 3274 | 6828 | inactive
sicily (severe impairment of CI with lengthened youth) | 1 | 64994 | 2.73e5 | 1781 | 10073 | inactive
SmB (Small ribonucleoprotein particle protein SmB) | 1 | 50108 | 48857 | 2866 | 2435 | inactive
CG14104 | 1 | 1.04e5 | 1.27e5 | 3900 | 3789 | inactive
CR40354 (pseudo) | 1 | 6.56e5 | 1.93e5 | 34808 | 4087 | inactive
CG1092 | 1 | 1.40e5 | 95414 | 5109 | 3635 | inactive
CG13950 | 1 | 1.03e5 | 96614 | 2869 | 2361 | inactive
RhoGDI | 1 | 1.14e5 | 87985 | 5098 | 3856 | inactive
Ddx56 (DEAD-box helicase 56) | 1 | 45657 | 1.89e5 | 1505 | 9783 | inactive
peg (pegasus) | 1 | 8.02e5 | 1.19e5 | 32006 | 2722 | inactive
CG18213 | 1 | 81925 | 87866 | 2277 | 2178 | inactive
CG3492 | 1 | 97543 | 50768 | 4185 | 2080 | inactive
CG6865 | 1 | 1.19e5 | – | 2981 | 2317 | inactive
CG14301 | 1 | 5.57e5 | 1.39e5 | 29821 | 4073 | inactive
Roe1 | 1 | 1.06e5 | 51969 | 5029 | 2605 | inactive
Cpn (Calphotin) | 1 | 83971 | 88827 | 3925 | 4155 | inactive
CG34008 | 1 | 55127 | 2.16e5 | 12000 | 5204 | inactive
Ser7 | 1 | 90861 | 85097 | 2118 | 1864 | inactive
kis (kismet) | 1 | 1.87e5 | 1.18e5 | 4120 | 3259 | inactive
kis (kismet) | 2 | 1.69e5 | 1.02e5 | 3472 | 1868 | inactive
kis (kismet) | 3 | 2.00e5 | 73642 | 5880 | 2352 | inactive
Jhbp3 (Juvenile hormone binding protein 3) | 1 | 78483 | 97507 | 3221 | 1657 | inactive
CG15136 | 1 | 74636 | 36133 | 2058 | 3986 | inactive
Acbp1 (Acyl-CoA binding protein 1) | 1 | 97637 | 59317 | 2500 | 5040 | inactive
CG9471 | 1 | 57709 | 1.18e5 | 1704 | 3266 | inactive
CG33757 | 1 | 1.05e5 | 2.48e5 | 2560 | 9430 | inactive
Hem (HEM-protein) | 1 | 74202 | 68109 | 3787 | 3056 | inactive
CG13482 | 1 | 1.71e5 | 1.21e5 | 6849 | 5017 | inactive
hay (haywire) | 1 | 68145 | 97512 | 3469 | 3574 | inactive
CG42542 | 1 | 1.26e5 | 1.13e5 | 5537 | 4160 | inactive
Zip42C.1 (Zinc/iron regulated transporter-related protein 42C.1) | 1 | 86432 | 54544 | 2106 | 2344 | inactive
CG8419 | 1 | 1.17e5 | 68410 | 3394 | 6468 | inactive
Syt4 (Synaptotagmin 4) | 1 | 71088 | 1.22e5 | 3059 | 3490 | inactive
